# Further values from the same series stand in other lists.
# Test system: strains of Enterobacteriaceae producing various carbapenemases (class A, D and B; 169 strains)
# Assay: Meropenem or tebipenem potentiation by Compounds 97 or 62 (MIC)
# Type: cell-based
# Procedure: The largest panel of clinical isolates expressing class A, D and B carbapenemases alone or in combination with other beta-lactamases (169 strains) was used to evaluate carbapenem potentiation activity of Compounds 97 and 62. MIC for meropenem and tebipenem of these strains were determined either alone or in the presence of Compounds 97 or 62, respectively, at a fixed concentration of 8 μg/ml in the growth media.
structure (smiles),measurement,setting,value
C[C@@H](O)[C@H]1C(=O)N2C(C(=O)O)=C(SC3CN(C4=NCCS4)C3)[C@H](C)[C@H]12 [T],Tebipenem MIC alone (T),CF1012 Citrobacter freundii KPC-2,Z (MIC of greater than 10 μg/mL)
same,Tebipenem MIC alone (T),"CF1021 Citrobacter freundii CMY-type, VIM-1",Y (MIC of 1 μg/mL to 10 μg/mL)
same,Tebipenem MIC alone (T),"EA1019 Enterobacter aerogenes SHV-5, VIM-1",Z (MIC of greater than 10 μg/mL)
same,Tebipenem MIC alone (T),EC1007 Escherichia coli KPC-3,Y (MIC of 1 μg/mL to 10 μg/mL)
same,Tebipenem MIC alone (T),"EC1064 Escherichia coli NDM-1, CMY-6, CTX-M-15",Z (MIC of greater than 10 μg/mL)
same,Tebipenem MIC alone (T),EC1065 Escherichai coli IMP-1 CMY-2,Y (MIC of 1 μg/mL to 10 μg/mL)
same,Tebipenem MIC alone (T),EC1068 Escherichia coli VIM-1,Y (MIC of 1 μg/mL to 10 μg/mL)
same,Tebipenem MIC alone (T),EC1073 Escherichia coli OXA-48,Z (MIC of greater than 10 μg/mL)
same,Tebipenem MIC alone (T),"EC1074 Escherichia coli KPC-2, SHV-12",Z (MIC of greater than 10 μg/mL)
same,Tebipenem MIC alone (T),EC1076 Escherichia coli NDM-1 CMY-2,Z (MIC of greater than 10 μg/mL)
same,Tebipenem MIC alone (T),ECL1004 Enterobacter cloacae NMC-A,Z (MIC of greater than 10 μg/mL)
same,Tebipenem MIC alone (T),"ECL1026 Enterobacter cloacae KPC-2, TEM-1",Z (MIC of greater than 10 μg/mL)
same,Tebipenem MIC alone (T),"ECL1036 Enterobacter cloacae KPC-3, TEM-1",Z (MIC of greater than 10 μg/mL)
same,Tebipenem MIC alone (T),"ECL1058 Enterobacter cloacae KPC-3, SHV-11, TEM-1",Z (MIC of greater than 10 μg/mL)
same,Tebipenem MIC alone (T),"ECL1059 Enterobacter cloacae KPC-3, SHV-12, TEM-1",Y (MIC of 1 μg/mL to 10 μg/mL)
same,Tebipenem MIC alone (T),"ECL1061 Enterobacter cloacae KPC-3, Hyper AmpC expression",Z (MIC of greater than 10 μg/mL)
same,Tebipenem MIC alone (T),ECL1079 Enterobacter cloacae KPC TEM,Z (MIC of greater than 10 μg/mL)
same,Tebipenem MIC alone (T),ECL1082 Enterobacter cloacae VIM-1,Y (MIC of 1 μg/mL to 10 μg/mL)
same,Tebipenem MIC alone (T),KP1001 Klebsiella pneumoniae KPC TEM SHV,Z (MIC of greater than 10 μg/mL)
same,Tebipenem MIC alone (T),KP1002 Klebsiella pneumoniae KPC TEM SHV,Z (MIC of greater than 10 μg/mL)
same,Tebipenem MIC alone (T),KP1003 Klebsiella pneumoniae KPC TEM SHV,Z (MIC of greater than 10 μg/mL)
same,Tebipenem MIC alone (T),"KP1004 Klebsiella pneumoniae KPC-2, TEM-1, SHV-11",Z (MIC of greater than 10 μg/mL)
same,Tebipenem MIC alone (T),KP1008 Klebsiella pneumoniae KPC-2,Z (MIC of greater than 10 μg/mL)
same,Tebipenem MIC alone (T),"KP1014 Klebsiella pneumoniae Vim-1, TEM, SHV",Z (MIC of greater than 10 μg/mL)
same,Tebipenem MIC alone (T),"KP1015 Klebsiella pneumoniae VIM-1, SHV",Z (MIC of greater than 10 μg/mL)
same,Tebipenem MIC alone (T),"KP1082 Klebsiella pneumoniae KPC-2, SHV-1",Z (MIC of greater than 10 μg/mL)
same,Tebipenem MIC alone (T),"KP1083 Klebsiella pneumoniae KPC-3, SHV-1, TEM-1",Z (MIC of greater than 10 μg/mL)
same,Tebipenem MIC alone (T),"KP1084 Klebsiella pneumoniae KPC-3, SHV-11, TEM-1",Z (MIC of greater than 10 μg/mL)
same,Tebipenem MIC alone (T),"KP1086 Klebsiella pneumoniae TEM, SHV, CTX-M-15, OXA-48",Z (MIC of greater than 10 μg/mL)
same,Tebipenem MIC alone (T),"KP1087 Klebsiella pneumoniae KPC-2, CTX-M-15, SHV-11, TEM-1",Z (MIC of greater than 10 μg/mL)
same,Tebipenem MIC alone (T),"KP1088 Klebsiella pneumoniae KPC-3, SHV-11, TEM-1",Z (MIC of greater than 10 μg/mL)
same,Tebipenem MIC alone (T),"KP1089 Klebsiella pneumoniae TEM, SHV, CTX-M-15, OXA-181",Y (MIC of 1 μg/mL to 10 μg/mL)
same,Tebipenem MIC alone (T),"KP1092 Klebsiella pneumoniae SHV-11, SHV-12, TEM-1, KPC",Z (MIC of greater than 10 μg/mL)
same,Tebipenem MIC alone (T),KP1093 Klebsiella pneumoniae KPC-3 TEM SHV-11,Z (MIC of greater than 10 μg/mL)
same,Tebipenem MIC alone (T),KP1094 Klebsiella pneumoniae KPC-2 TEM-1 LEN-17,Z (MIC of greater than 10 μg/mL)
same,Tebipenem MIC alone (T),KP1095 Klebsiella pneumoniae KPC-2 TEM-1 SHV-1,Z (MIC of greater than 10 μg/mL)
same,Tebipenem MIC alone (T),KP1096 Klebsiella pneumoniae KPC-2 TEM-181 SHV-11,Z (MIC of greater than 10 μg/mL)
same,Tebipenem MIC alone (T),KP1097 Klebsiella pneumoniae IMP-1 SHV,Y (MIC of 1 μg/mL to 10 μg/mL)
same,Tebipenem MIC alone (T),KP1098 Klebsiella pneumoniae IMP-26 TEM SHV,Z (MIC of greater than 10 μg/mL)
same,Tebipenem MIC alone (T),KP1099 Klebsiella pneumoniae KPC-2 SHV,Z (MIC of greater than 10 μg/mL)
same,Tebipenem MIC alone (T),KP1100 Klebsiella pneumoniae KPC-3 TEM SHV,Z (MIC of greater than 10 μg/mL)
same,Tebipenem MIC alone (T),KP1101 Klebsiella pneumoniae KPC-2 TEM SHV,Z (MIC of greater than 10 μg/mL)
same,Tebipenem MIC alone (T),KP1102 Klebsiella pneumoniae KPC-3 TEM SHV,Z (MIC of greater than 10 μg/mL)
same,Tebipenem MIC alone (T),"KP1104 Klebsiella pneumoniae KPC, TEM",Z (MIC of greater than 10 μg/mL)
same,Tebipenem MIC alone (T),"KP1105 Klebsiella pneumoniae KPC, SHV, TEM",Z (MIC of greater than 10 μg/mL)
same,Tebipenem MIC alone (T),KP1237 Klebsiella pneumoniae OXA-48 TEM SHV CTX-M-15,Z (MIC of greater than 10 μg/mL)
same,Tebipenem MIC alone (T),KP1239 Klebsiella pneumoniae OXA-48 SHV,Z (MIC of greater than 10 μg/mL)
same,Tebipenem MIC alone (T),KP1240 Klebsiella pneumoniae OXA-181 SHV CTX-M-15,Y (MIC of 1 μg/mL to 10 μg/mL)
same,Tebipenem MIC alone (T),KP1241 Klebsiella pneumoniae OXA-181 TEM SHV CTX-M-15,Z (MIC of greater than 10 μg/mL)
same,Tebipenem MIC alone (T),"KP1242 Klebsiella pneumoniae KPC-2, SHV-12 TEM",Z (MIC of greater than 10 μg/mL)
same,Tebipenem MIC alone (T),KP1243 Klebsiella pneumoniae KPC-2 SHV VIM-1,Z (MIC of greater than 10 μg/mL)
same,Tebipenem MIC alone (T),KP1244 Klebsiella pneumoniae KPC SHV TEM + 1.9 kb,Z (MIC of greater than 10 μg/mL)
same,Tebipenem MIC alone (T),KP1245 Klebsiella pneumoniae KPC SHV TEM + 1.9 kb,Z (MIC of greater than 10 μg/mL)
same,Tebipenem MIC alone (T),KP1246 Klebsiella pneumoniae KPC SHV TEM + 1.9 kb,Z (MIC of greater than 10 μg/mL)
same,Tebipenem MIC alone (T),KP1247 Klebsiella pneumoniae IMP TEM SHV,Z (MIC of greater than 10 μg/mL)
same,Tebipenem MIC alone (T),KP1248 Klebsiella pneumoniae OXA-232 SHV CTX-M-15,Z (MIC of greater than 10 μg/mL)
same,Tebipenem MIC alone (T),KP1249 Klebsiella pneumoniae OXA-232 SHV,Z (MIC of greater than 10 μg/mL)
same,Tebipenem MIC alone (T),KP1250 Klebsiella pneumoniae NDM-1 TEM SHV SMY-2 CTX-M-15,Z (MIC of greater than 10 μg/mL)
same,Tebipenem MIC alone (T),KP1252 Klebsiella pneumoniae KPC TEM SHV,Z (MIC of greater than 10 μg/mL)
same,Tebipenem MIC alone (T),KPM1123 Klebsiella pneumoniae KPC-2 TEM SHV,Z (MIC of greater than 10 μg/mL)
same,Tebipenem MIC alone (T),KPM1202 Klebsiella pneumoniae KPC SHV TEM,Z (MIC of greater than 10 μg/mL)
same,Tebipenem MIC alone (T),KPM1203 Klebsiella pneumoniae KPC SHV TEM,Z (MIC of greater than 10 μg/mL)
same,Tebipenem MIC alone (T),KPM1344 Klebsiella pneumoniae VIM-1,Y (MIC of 1 μg/mL to 10 μg/mL)
same,Tebipenem MIC alone (T),KPM1345 Klebsiella pneumoniae VIM-1 SHV,Y (MIC of 1 μg/mL to 10 μg/mL)
same,Tebipenem MIC alone (T),KPM1346 Klebsiella pneumoniae NDM-1 TEM SHV CTX-M-15 CMY,Z (MIC of greater than 10 μg/mL)
same,Tebipenem MIC alone (T),KPM1347 Klebsiella pneumoniae NDM-1 SHV CTX-M-15,Z (MIC of greater than 10 μg/mL)
same,Tebipenem MIC alone (T),"KX1017 Klebsiella oxytoca KPC-2, OXA-2, SHV-30",Z (MIC of greater than 10 μg/mL)
same,Tebipenem MIC alone (T),"KX1018 Klebsiella oxytoca KPC-2, SHV-40, OXY-1",Z (MIC of greater than 10 μg/mL)
same,Tebipenem MIC alone (T),"KX1019 Klebsiella oxytoca KPC-2, OXA-2",Z (MIC of greater than 10 μg/mL)
